These are literature values, as cited in US20180071210A1, “CANNABINOID FORMULATIONS” (GW Research Limited, priority 2016, published 2018).

Values after ≈ are worked out from the molar mass of the structure shown.

Turning to `C=C(C)[C@@H]1CCC(C)=C[C@H]1c1c(O)cc(CCCCC)cc1O` [CBD, cannabidiol], the “solubility in dimethylsulfoxide DMSO” value (DMSO) is reported as 60 mg/mL (≈ 191 mM). For the same compound, the solubility in ethanol (ethanol) is given as 36 mg/mL (≈ 114 mM).
